Experimental data as given in patent US20250314643A1, “FLUORESCENT COMPLEXES COMPRISING TWO RHODAMINE DERIVATIVES AND A NUCLEIC ACID MOLECULE” (CENTRE NATIONAL DE LA RECHERCHE SCIENTIFIQUE, priority 2019, published 2025).

Experiment: Fluorescence Correlation Spectroscopy (FCS) analysis of the fluoromodules
Assay type: physicochemical
Details: fluorogen 200 nM, aptamer 1 μM

## CN(C)c1ccc2c(-c3ccccc3C(=O)[O-])c3ccc(N(C)C)cc3[o+]c2c1 [Tetramethylrhodamine]
  n (number of emissive species per excitation volume): 11.64
